Reference: PMC11387234, “Identification of novel inhibitors of the transcriptional coactivator MRTF-A for HCC therapy” (Molecular Therapy Oncology, 2024)
These are yes or no findings as the source states them, for the method shown. In cells and extracts the contact can be indirect. Some entries that bind do so weakly or less than the wild type.

Chains of the proteins cited; added tags and fusions are not shown.
UniProt Q96QT4: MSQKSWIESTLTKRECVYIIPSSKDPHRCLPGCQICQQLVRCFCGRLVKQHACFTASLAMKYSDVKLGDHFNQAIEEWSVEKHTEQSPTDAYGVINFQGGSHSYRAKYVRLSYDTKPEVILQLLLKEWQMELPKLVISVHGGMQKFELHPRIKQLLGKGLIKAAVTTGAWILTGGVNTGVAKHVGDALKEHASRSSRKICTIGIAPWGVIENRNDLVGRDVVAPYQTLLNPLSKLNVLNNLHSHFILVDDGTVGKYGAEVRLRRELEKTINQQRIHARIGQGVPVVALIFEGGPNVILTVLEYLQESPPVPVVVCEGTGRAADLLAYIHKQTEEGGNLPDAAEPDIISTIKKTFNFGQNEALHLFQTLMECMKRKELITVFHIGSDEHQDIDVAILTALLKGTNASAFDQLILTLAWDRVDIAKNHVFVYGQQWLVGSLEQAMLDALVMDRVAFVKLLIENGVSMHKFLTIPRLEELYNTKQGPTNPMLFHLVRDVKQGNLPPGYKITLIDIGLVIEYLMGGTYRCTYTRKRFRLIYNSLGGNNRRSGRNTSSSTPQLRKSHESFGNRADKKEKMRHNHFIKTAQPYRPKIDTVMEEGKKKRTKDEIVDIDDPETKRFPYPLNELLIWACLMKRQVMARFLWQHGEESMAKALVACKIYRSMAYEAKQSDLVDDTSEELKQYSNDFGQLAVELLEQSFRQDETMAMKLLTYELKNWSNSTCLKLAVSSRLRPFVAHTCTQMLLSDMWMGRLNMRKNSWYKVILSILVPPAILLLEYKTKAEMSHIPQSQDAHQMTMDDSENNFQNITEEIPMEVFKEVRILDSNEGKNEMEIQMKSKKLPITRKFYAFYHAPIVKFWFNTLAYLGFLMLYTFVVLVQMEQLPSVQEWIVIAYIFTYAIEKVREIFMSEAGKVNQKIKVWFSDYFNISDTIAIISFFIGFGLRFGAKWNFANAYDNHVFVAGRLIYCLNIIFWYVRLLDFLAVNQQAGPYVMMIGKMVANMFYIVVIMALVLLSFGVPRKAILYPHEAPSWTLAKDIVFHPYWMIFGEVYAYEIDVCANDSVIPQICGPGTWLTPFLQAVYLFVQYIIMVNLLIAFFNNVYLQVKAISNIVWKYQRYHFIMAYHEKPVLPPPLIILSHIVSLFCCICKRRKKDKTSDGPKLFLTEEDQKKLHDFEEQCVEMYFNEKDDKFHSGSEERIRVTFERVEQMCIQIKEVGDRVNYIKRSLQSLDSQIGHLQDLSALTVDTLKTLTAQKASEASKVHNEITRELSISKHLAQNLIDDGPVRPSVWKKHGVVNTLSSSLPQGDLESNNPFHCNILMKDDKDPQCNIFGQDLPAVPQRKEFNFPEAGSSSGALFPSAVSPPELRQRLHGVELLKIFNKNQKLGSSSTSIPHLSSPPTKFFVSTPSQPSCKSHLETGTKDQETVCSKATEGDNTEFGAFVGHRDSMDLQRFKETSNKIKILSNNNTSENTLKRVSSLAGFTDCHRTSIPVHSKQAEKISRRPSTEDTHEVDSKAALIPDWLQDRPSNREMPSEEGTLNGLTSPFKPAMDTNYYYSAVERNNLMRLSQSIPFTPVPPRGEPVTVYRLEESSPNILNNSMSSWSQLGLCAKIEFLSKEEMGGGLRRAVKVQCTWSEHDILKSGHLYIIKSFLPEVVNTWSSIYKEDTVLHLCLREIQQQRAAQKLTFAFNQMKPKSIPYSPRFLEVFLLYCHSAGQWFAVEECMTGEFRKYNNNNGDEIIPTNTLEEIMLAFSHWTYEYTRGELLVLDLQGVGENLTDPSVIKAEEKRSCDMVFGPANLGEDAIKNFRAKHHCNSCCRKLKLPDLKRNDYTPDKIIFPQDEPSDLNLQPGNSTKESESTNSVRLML
UniProt P61586: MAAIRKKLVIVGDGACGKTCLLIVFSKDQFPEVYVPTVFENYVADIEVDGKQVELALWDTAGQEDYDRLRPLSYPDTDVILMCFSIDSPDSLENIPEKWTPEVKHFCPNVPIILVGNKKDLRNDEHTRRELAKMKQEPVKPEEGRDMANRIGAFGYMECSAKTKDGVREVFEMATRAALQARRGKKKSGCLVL

Biological target: transient receptor potential cation channel TRPM7 (human (endogenous in HuH7)) (UniProt Q96QT4)
Assay: proximity ligation; DuoLink In situ Red kit (mouse/rabbit) on HuH7 cells, endogenous TRPM7 and RhoA, anti-TRPM7/TRPM6 and anti-RhoA primary antibodies; cells treated for 6 h with compound 5 (5 uM), compound 8 or rNS (30 uM); PLA signals counted in 15 cells per condition

In the case of RhoA (from UniProt P61586 1-193), the binding is reported as “binds”.
